Consider one substance from PMC10181935.

Protein sequences, listed by entry. Tags and fused reporters are not part of them. Lines headed by an entry give the natural chain unless they say otherwise; changes in a name come on top. Chains listed by the source or under a name are the forms on record and can include a tag or linker.
UniProt Q16665: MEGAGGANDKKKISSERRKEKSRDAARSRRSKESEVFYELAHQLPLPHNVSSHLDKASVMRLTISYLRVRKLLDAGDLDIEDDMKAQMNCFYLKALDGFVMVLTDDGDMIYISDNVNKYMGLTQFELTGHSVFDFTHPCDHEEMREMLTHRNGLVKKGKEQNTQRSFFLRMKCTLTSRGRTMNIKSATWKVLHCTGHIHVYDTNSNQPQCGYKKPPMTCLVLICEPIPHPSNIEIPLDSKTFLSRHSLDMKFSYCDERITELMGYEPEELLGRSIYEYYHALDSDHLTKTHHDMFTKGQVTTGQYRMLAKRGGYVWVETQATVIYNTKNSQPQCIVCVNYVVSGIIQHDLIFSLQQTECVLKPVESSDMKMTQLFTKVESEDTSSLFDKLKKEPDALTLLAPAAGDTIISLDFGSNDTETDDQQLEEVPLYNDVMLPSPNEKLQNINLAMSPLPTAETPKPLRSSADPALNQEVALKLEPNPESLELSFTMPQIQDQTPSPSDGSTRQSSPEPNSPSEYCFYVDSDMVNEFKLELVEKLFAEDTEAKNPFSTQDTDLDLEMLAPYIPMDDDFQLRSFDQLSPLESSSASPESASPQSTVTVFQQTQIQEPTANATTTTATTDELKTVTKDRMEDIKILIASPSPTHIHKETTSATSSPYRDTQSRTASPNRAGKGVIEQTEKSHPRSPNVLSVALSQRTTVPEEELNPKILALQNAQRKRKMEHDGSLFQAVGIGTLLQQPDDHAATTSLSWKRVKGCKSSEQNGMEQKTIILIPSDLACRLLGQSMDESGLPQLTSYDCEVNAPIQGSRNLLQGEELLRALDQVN
FBW7γ (Q969H0-4, form named): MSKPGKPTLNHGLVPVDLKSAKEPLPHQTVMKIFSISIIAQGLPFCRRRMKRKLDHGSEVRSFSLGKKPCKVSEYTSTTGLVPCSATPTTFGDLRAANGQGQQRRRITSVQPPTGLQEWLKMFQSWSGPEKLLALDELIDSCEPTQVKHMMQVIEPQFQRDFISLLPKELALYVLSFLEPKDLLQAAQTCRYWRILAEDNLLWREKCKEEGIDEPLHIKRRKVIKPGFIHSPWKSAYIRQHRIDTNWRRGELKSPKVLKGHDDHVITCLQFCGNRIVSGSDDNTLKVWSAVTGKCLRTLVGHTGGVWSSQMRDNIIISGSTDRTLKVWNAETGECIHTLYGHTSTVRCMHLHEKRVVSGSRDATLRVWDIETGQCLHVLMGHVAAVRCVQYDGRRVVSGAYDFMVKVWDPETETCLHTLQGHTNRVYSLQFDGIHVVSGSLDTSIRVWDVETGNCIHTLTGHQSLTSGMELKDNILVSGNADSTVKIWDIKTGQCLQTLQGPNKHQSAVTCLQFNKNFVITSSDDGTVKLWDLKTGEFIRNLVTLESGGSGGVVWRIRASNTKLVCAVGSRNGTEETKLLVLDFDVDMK

The target in this assay is HIF1α (human (endogenous in 8505C and C643)) (UniProt Q16665). Briefly: co-IP; cell lysates of 8505C or C643 cells under hypoxia incubated with antibodies against target proteins or IgG at 4 °C for 3 h, protein A/G-agarose beads at 4 °C overnight, washed with RIPA buffer, western blot; treatments of the cells: Dox-induced TET1, 20 μM LY294002 for 24 h, TET1 knockout (sgTET1) against sgCon, MG132 (p300 co-IP). On the technique in general: A western blot detects proteins with antibodies after separation by electrophoresis.

Results are given in words; binding and its absence hold for the method and conditions named. Binding seen in cells or lysates may run through a third protein. Some binding calls cover weakened binding; strength is not graded here.

Turning to FBW7γ (from UniProt Q969H0-4 1-589), the binding entry was “binds”.
